Laboratory results: PMC12059481
Results are given in words; binding and its absence hold for the method and conditions named.

Sequences of proteins named here, by UniProt entry; tags and fusion partners are left off. A change or cut given only in a name is not applied to a line headed by its entry. A line that says so, or that is headed by a name, gives the form on record, which may keep a tag or linker. Residues count along the entry.
B Box-97 (HMGB1 amino acids 80 to 176) (P09429, residues 80-176): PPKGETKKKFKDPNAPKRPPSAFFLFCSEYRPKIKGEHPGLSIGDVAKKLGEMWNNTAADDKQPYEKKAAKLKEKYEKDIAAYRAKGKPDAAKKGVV
mB Box-97syn (synthetic 97 amino acid peptide, B Box-97 of HMGB1 with C106S) (P09429, form named): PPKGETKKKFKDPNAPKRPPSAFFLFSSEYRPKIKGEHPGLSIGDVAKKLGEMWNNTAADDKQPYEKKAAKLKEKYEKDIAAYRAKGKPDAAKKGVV

Tests used:
[1] = molecular target: mB Box-97syn (synthetic 97 amino acid peptide, B Box-97 of HMGB1 with C106S) (human) (UniProt P09429); test: cross-linking; B Box-97 or mB Box-97syn alone in the presence of glutaraldehyde (Supplementary Figure S7); both purified
[2] = molecular target: B Box-97 (HMGB1 amino acids 80 to 176) (human) (UniProt P09429); test: as above

| binding [1] | binding [2] | Substance |
| --- | --- | --- |
| no binding |  | mB Box-97syn (synthetic 97 amino acid peptide, B Box-97 of HMGB1 with C106S) (from UniProt P09429 80-176) |
|  | no binding | B Box-97 (HMGB1 amino acids 80 to 176) (from UniProt P09429 80-176) (domain or fragment) |
